This is one part of the list. Most values lie at the level of the controls, where differences are scatter.

By UniProt entry, the sequences of proteins in these tests, tags left out. Where a name states a change or a piece, a line headed by the entry shows the natural chain unless it says otherwise.
UniProt P76073: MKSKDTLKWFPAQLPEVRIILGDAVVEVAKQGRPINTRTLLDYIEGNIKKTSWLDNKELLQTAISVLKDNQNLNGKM
UniProt P76182: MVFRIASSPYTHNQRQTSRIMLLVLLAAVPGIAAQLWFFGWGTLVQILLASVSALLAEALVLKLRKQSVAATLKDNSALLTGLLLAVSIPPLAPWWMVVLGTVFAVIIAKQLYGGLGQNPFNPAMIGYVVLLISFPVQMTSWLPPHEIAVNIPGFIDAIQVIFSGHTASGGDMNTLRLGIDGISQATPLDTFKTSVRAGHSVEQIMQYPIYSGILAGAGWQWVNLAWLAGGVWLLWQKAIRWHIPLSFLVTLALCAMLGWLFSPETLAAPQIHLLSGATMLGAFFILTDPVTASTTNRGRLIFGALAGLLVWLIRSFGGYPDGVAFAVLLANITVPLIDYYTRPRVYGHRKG
UniProt P77357: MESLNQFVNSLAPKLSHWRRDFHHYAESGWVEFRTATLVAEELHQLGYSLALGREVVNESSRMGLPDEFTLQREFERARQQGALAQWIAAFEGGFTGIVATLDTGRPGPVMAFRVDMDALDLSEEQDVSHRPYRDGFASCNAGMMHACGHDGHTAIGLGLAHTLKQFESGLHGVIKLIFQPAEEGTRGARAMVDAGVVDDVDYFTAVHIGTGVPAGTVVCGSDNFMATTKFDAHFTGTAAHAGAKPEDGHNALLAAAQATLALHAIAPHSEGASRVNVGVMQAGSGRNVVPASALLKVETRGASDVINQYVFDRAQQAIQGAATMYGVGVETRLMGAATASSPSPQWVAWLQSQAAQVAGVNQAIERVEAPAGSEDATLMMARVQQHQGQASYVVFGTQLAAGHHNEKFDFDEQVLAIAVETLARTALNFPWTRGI
UniProt P76506: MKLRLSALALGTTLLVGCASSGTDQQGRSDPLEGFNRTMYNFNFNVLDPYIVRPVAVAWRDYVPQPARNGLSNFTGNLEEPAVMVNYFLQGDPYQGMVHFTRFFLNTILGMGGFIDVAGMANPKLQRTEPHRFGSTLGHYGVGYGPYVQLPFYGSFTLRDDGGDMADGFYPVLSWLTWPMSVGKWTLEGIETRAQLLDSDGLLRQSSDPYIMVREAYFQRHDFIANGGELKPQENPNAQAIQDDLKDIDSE
UniProt P76044: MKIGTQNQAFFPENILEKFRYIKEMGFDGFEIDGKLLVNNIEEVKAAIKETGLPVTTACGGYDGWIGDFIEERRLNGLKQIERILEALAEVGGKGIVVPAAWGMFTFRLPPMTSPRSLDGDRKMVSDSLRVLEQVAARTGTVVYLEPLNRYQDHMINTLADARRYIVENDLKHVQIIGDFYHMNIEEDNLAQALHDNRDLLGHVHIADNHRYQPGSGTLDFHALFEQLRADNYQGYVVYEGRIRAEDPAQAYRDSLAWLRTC

Experimental findings from the supplement of paper PMC12819154, “High-throughput peptide-centric local stability assay extends protein–ligand identification to membrane proteins, tissues and bacteria” (Nature Structural & Molecular Biology, 2025) are described below.

Compound in this assay: CC1(C)S[C@@H]2[C@H](NC(=O)[C@H](N)c3ccccc3)C(=O)N2[C@H]1C(=O)O [ampicillin]
Nature of the assay: log2 fold change of tryptic peptide abundance, ligand vs vehicle (limited proteolysis) (log2 ratio); higher = more trypsin-susceptible (destabilized). The conditions noted are these: ligand concentration: 10 uM; sample: E. coli crude lysate.
As for “UniProt P76073 (peptide sequence: WFPAQLPEVR, peptide start residue: 9)”, the log2 fold change was -0.946.
“UniProt P76182 (peptide sequence: IASSPYTHNQR, peptide start residue: 5)”: the log2 fold change was -0.391.
In the case of “UniProt P77357 (peptide sequence: VNVGVMQAGSGR, peptide start residue: 276)”, the log2 fold change was -0.177.
“UniProt P76506 (peptide sequence: AQLLDSDGLLR, peptide start residue: 194)”: the log2 fold change was -0.118.
“UniProt P76044 (peptide sequence: YQDHMINTLADAR, peptide start residue: 151)”: the log2 fold change is -0.147.
